# Library screen at single concentrations

T. brucei: 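Whole-parasite assay of Trypanosoma brucei over 72 hours; the read-out is not stated. Tested at 30 µM. The record gives no direction; compounds that gave an IC50 in retests scored well above the rest, so higher reads as stronger inhibition. Values scatter widely below zero; nearly all retest evidence comes from the higher of the two concentrations used. Size under these conditions: about 64,000 compounds, about 940 of them at 50% or above in at least one test.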
Toxoplasma: 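Assay of Toxoplasma gondii numbers, read through their beta-galactosidase reporter with a colour substrate. Concentration: 10 µM. The record gives no direction; the compounds picked for IC50 retests had high values, so higher reads as fewer parasites. Size under these conditions: about 67,000 compounds, about 260 of them at 50% or above in at least one test.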
Leishmania in macrophages: 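Cell assay of Leishmania donovani living inside macrophages; the read-out is not stated. Compounds at 30 µM. The record gives no direction; compounds that gave an IC50 in retests scored well above the rest, so higher reads as stronger inhibition. Of about 69,000 compounds tested this way, about 1,000 (1.5%) reached 50% or more in at least one test.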

Results are given as percent effect. The record does not define 0% and 100%; most values in the screen are far below 50% and negative numbers occur (in some assays of this library far below -100). Compounds were drawn at random from those tested, without regard to their results. Two or more numbers in one place are separate tests of the same structure; such repeats can differ widely. A dash means the value is not listed here; it may have been measured.

SMILES,T. brucei,Toxoplasma,Leishmania in macrophages
COC(=O)CC1CCN(C(=O)c2ccccc2-n2nnnc2C)CC1,-19.85,-,9.884
CN(C)C(=O)CN1CCC2(CCN(S(=O)(=O)C3CC3)CC2)C1=O,13.67,2.182,8.872
N#Cc1c2n(c3c(N)ncnc13)CCCCC2,-68.02,3.844,0.5686
Cc1ccccc1N1CC(C)N(C(=O)CCn2cccn2)CC1=O (configuration not stated),-55.18,2.594,-9.367
Cn1ccnc1CN1CCN(Cc2ccc(C#N)cc2F)CC1,-,0.6215,31.34
CCN(CC1CCCO1)C(=O)NCCNC(=O)c1ccccc1F (configuration not stated),-23.08,-17.55,-58.83
CC(C)=CCN1CCN(C(C)c2cccnc2)CC1 (configuration not stated),9.488,-5.493,25.95
CCCN1CCC(c2nc3ccc(NCc4cccnc4)cn3n2)CC1.O=C(O)C(F)(F)F.O=C(O)C(F)(F)F.O=C(O)C(F)(F)F,-66.1,-15.33,28.53
CN(Cc1ccco1)Cc1cnc2n1CCN(c1ncccn1)CC2.O=C(O)C(F)(F)F,-60.46,-5.053,20.77
CCN(C)C1COC2(CCN(C(=O)c3cccc(Cl)c3)CC2)C1.O=C(O)C(F)(F)F (configuration not stated),-22.97,-7.867,-7.501
CC(C)(C)CCN1CCC(c2nnc(Cn3cccn3)n2C2CC2)CC1,-4.041,12.36,28.6
CCN1CCC(CC(=O)N2CCn3cccc3C2c2cccnc2)CC1 (configuration not stated),-3.914,16.27,9.428
COCCCNC(=O)c1cn(C(C)(C)C)c2ncccc12,-4.934,7.986,25.71
CCCC(C)Sc1nnnn1C1CCOCC1 (configuration not stated),-20.67,-,11.22
Cc1nc(N2CCCC2)nc2c1CCN(C(=O)NC1CCCC1)CC2,-13.61,-3.739,0.9243
O=C1NCCN(CC2CC2)C12CCN(Cc1ccco1)CC2,-38.94,3.489,0.7292
CN(C)C(=O)COc1ccccc1CN1CCCC2(C1)CN(C)C(=O)O2 (configuration not stated),-10.8,-1.998,6.146
CC(C)NS(=O)(=O)c1cc(C(=O)O)cc(-c2ccccc2F)c1,12.15,2.725,14.55
OCCNc1cc(N2CCN(Cc3ccccc3)C(CCO)C2)ncn1 (configuration not stated),-10.93,4.756,17.16
[H][C@@]12CCN(C(=O)c3cscn3)[C@@]1([H])CC(=O)N2Cc1cccnc1,-10.25,-18.31,-5.918
CCc1ncnc2c1CCN(Cc1ccccn1)CC2.O=C(O)C(F)(F)F.O=C(O)C(F)(F)F,-30.54,-2.271,2.936
Cc1n[nH]c2c1C(c1ccc(O)cc1)SCC(=O)N2 (configuration not stated),-7.18,9.299,25.29
CC(C)Cc1noc(CN(C)c2cc(N(C)C)ncn2)n1,-16.25,-4.439,26.43
CC(NC(=O)CNc1cc2c(cc1Cl)OCCO2)c1ccco1 (configuration not stated),-35.45,15.26,21.05
[H][C@@]12CCCO[C@]1([H])[C@H](OCc1cccnc1)CN2C(=O)c1cccn1C,-2.337,1.724,-3.103
C[C@@H]1CN(C2Cc3ccccc3C2)CC[C@@]1(O)C1CCOCC1,-14.58,-,63.81
[H][C@@]12C[C@H](C(=O)N(C)C)[C@@]([H])(CN(c3ncc(CC)cn3)C1)O2,17.54,2.03,22.2
Cc1cnn(CC2CCCCN2C(=O)c2cccc(C(N)=O)c2)c1 (configuration not stated),-,-5.055,-0.1969
O=C(Cc1c[nH]c(=O)[nH]c1=O)N1CCC2(CCC(=O)N(C3CC3)C2)CC1,11.36,-2.263,5.679
CN(C)C1CCCN(C(=O)NCCNC(=O)C2CCCC2)C1 (configuration not stated),-11.42,12.7,10.87
CC(C(=O)NCc1ccnc(N2CCCCCC2)c1)n1cccn1 (configuration not stated),-16.26,-33.93,29.34
CC1CCCN(C(=O)Cn2cc(I)cn2)C1 (configuration not stated),4.892,1.333,6.97
[H][C@]12CC[C@]([H])(CN(c3cnccn3)C1)N(C(=O)c1c(C)noc1C)C2,-18.71,-4.494,19.99
O=C(Nc1nnc(C(F)F)s1)NC(CCO)c1cccs1 (configuration not stated),-83.24,11.57,9.173
CNC(=O)NC(=O)CCSCc1cc(F)cc2cccnc12,-10.75,-15.15,2.728
Cc1c[nH]nc1C1CCCN1Cc1ncc[nH]1.O=CO (configuration not stated),-23.92,2.915,41.33
O=C(O)C(F)(F)F.O=C(O)C(F)(F)F.[H][C@@]12CCCO[C@]1([H])[C@H](OC)CN2Cc1scnc1C,-5.67,1.861,6.866
CC(C)c1cc(=O)[nH]c(-n2nc(C3CC3)cc2N)n1,99.41,94.68,99.71 and 96.97
Cc1ccc(CNC(=O)c2ccc(F)cc2)o1,-29.14,6.84,2.392
CCC/N=c1/c(NC(=O)NCCOC)c(O)oc2ccccc12,-,8.349,-98.81
Cc1cccc(OCCC(=O)NCC2CN(C)CCO2)c1C (configuration not stated),-0.6568,-18.47,7.953
CSc1ccccc1CN1CCn2nc(CNC(C)=O)cc2C1,-95.45,-3.612,-8.448
CS(=O)(=O)N1CCc2[nH]cnc2C12CCN(C1CCOCC1)CC2,-20.74,4.965,15.28
Cc1ccc(CCNC(=O)Cn2nc(C)n(Cc3ccccc3)c2=O)s1,-37.46,-1.623,15.51
c1ccc(-n2cc(CNC3CCc4ncnn4C3)nn2)cc1 (configuration not stated),5.882,10.88,28.85
CSCCC1c2nc[nH]c2CCN1Cc1ccccc1C(F)(F)F (configuration not stated),9.212,-,44.24
CNS(=O)(=O)c1cccc(C(C)NCc2ccsc2)c1 (configuration not stated),-19.15,1.447,32.33

The last 5 entries again:

| SMILES | T. brucei | Toxoplasma | Leishmania in macrophages |
|---|---|---|---|
| `CS(=O)(=O)N1CCc2[nH]cnc2C12CCN(C1CCOCC1)CC2` | -20.74 | 4.965 | 15.28 |
| `Cc1ccc(CCNC(=O)Cn2nc(C)n(Cc3ccccc3)c2=O)s1` | -37.46 | -1.623 | 15.51 |
| `c1ccc(-n2cc(CNC3CCc4ncnn4C3)nn2)cc1` (configuration not stated) | 5.882 | 10.88 | 28.85 |
| `CSCCC1c2nc[nH]c2CCN1Cc1ccccc1C(F)(F)F` (configuration not stated) | 9.212 | - | 44.24 |
| `CNS(=O)(=O)c1cccc(C(C)NCc2ccsc2)c1` (configuration not stated) | -19.15 | 1.447 | 32.33 |

The values are deposited in ChEMBL (CHEMBL3988442, “University of Dundee, Small-Polar-MMV Screening Library” (2021)).